No constants are given. Whether binding was seen depends on the method and setting. Binding seen in cells or lysates may run through a third protein. Some binding calls cover weakened binding; strength is not graded here.

By UniProt entry, the sequences of proteins in these tests, tags left out. Residues count along the entry.
UniProt P22366: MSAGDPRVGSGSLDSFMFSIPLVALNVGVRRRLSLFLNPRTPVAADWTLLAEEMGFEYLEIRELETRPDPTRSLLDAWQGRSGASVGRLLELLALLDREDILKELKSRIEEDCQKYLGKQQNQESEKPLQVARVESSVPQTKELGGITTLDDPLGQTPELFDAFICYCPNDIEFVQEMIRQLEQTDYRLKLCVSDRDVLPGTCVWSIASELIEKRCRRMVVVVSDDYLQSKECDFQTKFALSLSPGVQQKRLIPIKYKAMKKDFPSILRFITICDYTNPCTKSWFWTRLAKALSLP
UniProt Q9QUK6, residues 26-835: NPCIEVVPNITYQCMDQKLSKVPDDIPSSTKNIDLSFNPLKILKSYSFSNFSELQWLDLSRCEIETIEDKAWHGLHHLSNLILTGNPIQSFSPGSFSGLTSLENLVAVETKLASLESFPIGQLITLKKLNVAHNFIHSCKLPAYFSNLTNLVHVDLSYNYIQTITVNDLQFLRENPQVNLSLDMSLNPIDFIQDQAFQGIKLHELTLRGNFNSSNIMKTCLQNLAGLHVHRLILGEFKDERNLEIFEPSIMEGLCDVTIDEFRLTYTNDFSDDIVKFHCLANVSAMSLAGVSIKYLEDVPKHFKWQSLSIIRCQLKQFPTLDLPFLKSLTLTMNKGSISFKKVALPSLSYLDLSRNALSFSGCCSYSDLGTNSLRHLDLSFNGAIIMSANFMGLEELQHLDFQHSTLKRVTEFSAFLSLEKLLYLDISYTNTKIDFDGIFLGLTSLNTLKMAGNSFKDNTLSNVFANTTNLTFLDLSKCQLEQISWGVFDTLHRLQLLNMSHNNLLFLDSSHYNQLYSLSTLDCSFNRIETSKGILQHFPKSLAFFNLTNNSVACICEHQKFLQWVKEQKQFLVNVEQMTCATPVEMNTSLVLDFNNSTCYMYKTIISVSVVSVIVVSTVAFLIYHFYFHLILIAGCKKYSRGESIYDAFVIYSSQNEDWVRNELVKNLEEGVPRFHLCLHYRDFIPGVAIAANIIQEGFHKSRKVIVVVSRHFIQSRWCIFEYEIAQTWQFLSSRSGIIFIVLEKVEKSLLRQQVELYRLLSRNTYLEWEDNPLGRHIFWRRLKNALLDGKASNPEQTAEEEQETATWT

For this assay, the target named is MyD88, endogenous in RAW264.7 cells (mouse (endogenous in RAW264.7)) (UniProt P22366). The experiment in a line: co-IP; RAW264.7 cells, endogenous proteins; with or without TTN (4 μg/ml, 1 h) before LPS (1 μg/ml, 2 h); 800 μg protein in IP lysis buffer precipitated with MyD88 antibody on magnetic beads; blots with anti-MyD88 and anti-TLR4.

As to “Toll-like receptor 4 (TLR4), endogenous in RAW264.7 cells (from UniProt Q9QUK6 26-835)”, the binding result is “binds”.

The values above are taken from publication PMC5596575.
